Patent US6403034B1, “Method of reducing the concentration of recalcitrant organic contamination in a soil matrix” (priority 1995, dated 2002)
For part of these data: For at least one compound, name, drawing or mass did not settle the structure. Some entries share one result that the patent states for a list of compounds.

What was measured:
[1] = Ozonation of contaminated soil slurry in 5-L reaction flask (Examples 1, 2 and 7); type: physicochemical
[2] = type: physicochemical

CCCCCCCCOC(=O)c1ccccc1C(=O)OCCCCCCCC [Di-n-octyl phthalate]
incubation phase ([1]; Example 2, phthalate-contaminated soil slurry): 24 to 48 h

O=S1OC[C@@H]2[C@H](CO1)[C@]1(Cl)C(Cl)=C(Cl)[C@@]2(Cl)C1(Cl)Cl (stereo partly drawn) [Endosulfan I]
soil concentration reduced by [2]: 97%

Oc1c(Cl)c(Cl)c(Cl)c(Cl)c1Cl [PCP, Pentachlorophenol]
incubation phase ([1]; Example 1, wood treating site soil slurry): 2 to 6 h
